Data published in publication PMC11205155.

Molecular target: T1, WC1 of Beauveria bassiana (Beauveria bassiana) (UniProt J5J1K4)
T1 sequence: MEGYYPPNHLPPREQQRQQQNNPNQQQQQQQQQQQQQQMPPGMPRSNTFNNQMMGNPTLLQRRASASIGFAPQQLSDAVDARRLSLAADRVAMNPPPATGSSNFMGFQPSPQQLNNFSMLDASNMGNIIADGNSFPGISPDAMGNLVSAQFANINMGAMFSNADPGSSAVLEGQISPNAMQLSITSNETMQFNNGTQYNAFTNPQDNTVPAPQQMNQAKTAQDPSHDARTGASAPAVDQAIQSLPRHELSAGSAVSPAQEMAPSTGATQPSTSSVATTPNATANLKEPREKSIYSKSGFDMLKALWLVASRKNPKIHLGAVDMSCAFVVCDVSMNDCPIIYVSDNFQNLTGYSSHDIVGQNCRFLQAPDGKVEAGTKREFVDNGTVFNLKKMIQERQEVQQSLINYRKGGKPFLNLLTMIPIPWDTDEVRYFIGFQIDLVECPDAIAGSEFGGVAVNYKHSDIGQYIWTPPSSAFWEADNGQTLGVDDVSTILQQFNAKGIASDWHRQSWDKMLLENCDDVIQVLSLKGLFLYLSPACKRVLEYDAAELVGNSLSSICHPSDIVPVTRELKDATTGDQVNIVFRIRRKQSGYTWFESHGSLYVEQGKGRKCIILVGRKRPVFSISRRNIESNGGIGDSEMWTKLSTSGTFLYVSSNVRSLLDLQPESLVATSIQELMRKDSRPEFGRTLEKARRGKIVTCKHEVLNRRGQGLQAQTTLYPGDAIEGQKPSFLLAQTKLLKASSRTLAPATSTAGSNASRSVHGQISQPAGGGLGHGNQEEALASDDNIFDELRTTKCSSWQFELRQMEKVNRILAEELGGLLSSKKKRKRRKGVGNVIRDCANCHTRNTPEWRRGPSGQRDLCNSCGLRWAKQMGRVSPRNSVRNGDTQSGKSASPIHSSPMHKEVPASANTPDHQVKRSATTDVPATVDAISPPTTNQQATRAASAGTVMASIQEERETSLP
Experiment: two-hybrid; AD fusions (pGADT7) in S. cerevisiae Y187 mated with BD fusions (pGBKT7) in Y2HGold; diploids spotted at 5 x 10^2, 5 x 10^3 and 5 x 10^4 cells on double-dropout (SDM/-Leu/-Trp/X-α-Gal/AbA) and quadruple-dropout (SDM/-Leu/-Trp/-Ade/-His/X-α-Gal/AbA) plates, 3 days at 30 °C

Substance | binding
Rad16A of Beauveria bassiana | no binding
Rad16B of Beauveria bassiana | no binding
Rad5 ortholog of Beauveria bassiana | no binding

Results are given in words; binding and its absence hold for the method and conditions named.
